Values of other authors, collected in patent US20240415836A1, “COMPOSITION COMPRISING TWO ENZYME INHIBITORS TARGETING TWO DIFFERENT CONFORMATIONS OF AN ENZYME” (University College Dublin, priority 2018, published 2024).
At least one structure is not confirmed: it was looked up by name or label, or the drawing left a doubt. Some entries share one result that the patent states for a list of compounds.

What was measured:
RAF = details: literature values; cited from earlier work
all RAF isoforms = details: literature (King 2006; Wan 2004; Wilhelm 2004); cited from earlier work

## Cc1ccc(NC(=O)c2cccc(C(C)(C)C#N)c2)cc1Nc1ccc2ncn(C)c(=O)c2c1 [AZ-628]
RAF
  1/koff: ≥ 2 h

## CN(C)CCOc1ccc(-c2nc(-c3ccncc3)c(-c3ccc4c(c3)CC/C4=N\O)[nH]2)cc1 [SB-590885]
All RAF isoforms
  inhibition of RAF isoforms in in vitro kinase assays: low nM range
